Data: PMC4141822
Results are given in words; binding and its absence hold for the method and conditions named. Binding can be weak; no strength is given.

Key:
[1] = target: Thermoproteus tenax Cas3″ (DNA nuclease) (Thermoproteus tenax); assay: co-refolding reconstitution, soluble fraction by SDS-PAGE; 300 µg of each GdmCl-solubilized Cas5a, Cas3′, Cas3″ and Cas8a2 mixed with purified Cas7 and a Csa5 variant, co-refolded by stepwise dialysis into GdmCl-free buffer; aggregates precipitated (14,000×g, 30 min, 4°C), soluble proteins concentrated and analysed by SDS-PAGE; both purified
[2] = target: Thermoproteus tenax Cas3′ (helicase) (Thermoproteus tenax); assay: as above

Binder	binding [1]	binding [2]
Thermoproteus tenax Csa5 wild type (TTX_1250) (natural protein, Thermoproteus tenax Kra1, UniProt G4RJZ0 1-130, looked up, Csa5 (Csa5b), small subunit of the type I-A Cascade, Thermoproteus tenax Kra1, locus TTX_1250; theoretical mass of the monomer 15.04 kDa; no tag is named and the purification uses none; also called Csa5 WT; Csa5b; source: E. coli Rosetta(DE3)pLysS, purified (heat precipitation 90°C, Blue-Sepharose, MonoQ)) MESVQLKKEELVERAARSVRPAVHLEMAYDVLDELSRSPEKYPEQLAKLSRIVVKVLNDVEDELEHNPQNEELQKARNRLAAWGGYVAELAKRLEEADDRERIRMVRLFCAMALAPDKLTVELKKLLKGR	binds	binds
Thermoproteus tenax Csa5 Y29A (natural protein, Thermoproteus tenax Kra1, UniProt G4RJZ0 1-130, looked up, Made by site-directed mutagenesis of the pET24a csa5 construct; source: E. coli Rosetta(DE3)pLysS, purified (heat precipitation 90°C, Blue-Sepharose, MonoQ)) MESVQLKKEELVERAARSVRPAVHLEMAADVLDELSRSPEKYPEQLAKLSRIVVKVLNDVEDELEHNPQNEELQKARNRLAAWGGYVAELAKRLEEADDRERIRMVRLFCAMALAPDKLTVELKKLLKGR	binds	binds
Thermoproteus tenax Csa5 D33A (natural protein, Thermoproteus tenax Kra1, UniProt G4RJZ0 1-130, looked up, Made by site-directed mutagenesis of the pET24a csa5 construct; source: E. coli Rosetta(DE3)pLysS, purified (heat precipitation 90°C, Blue-Sepharose, MonoQ)) MESVQLKKEELVERAARSVRPAVHLEMAYDVLAELSRSPEKYPEQLAKLSRIVVKVLNDVEDELEHNPQNEELQKARNRLAAWGGYVAELAKRLEEADDRERIRMVRLFCAMALAPDKLTVELKKLLKGR	binds	binds
Thermoproteus tenax Csa5 D30A/D33A (natural protein, Thermoproteus tenax Kra1, UniProt G4RJZ0 1-130, looked up, Made by site-directed mutagenesis of the pET24a csa5 construct; source: E. coli Rosetta(DE3)pLysS, purified (heat precipitation 90°C, Blue-Sepharose, MonoQ)) MESVQLKKEELVERAARSVRPAVHLEMAYAVLAELSRSPEKYPEQLAKLSRIVVKVLNDVEDELEHNPQNEELQKARNRLAAWGGYVAELAKRLEEADDRERIRMVRLFCAMALAPDKLTVELKKLLKGR	binds	binds
